Data reported in patent US20090215689A1.
Results are given in words; binding and its absence hold for the method and conditions named. Some binding calls cover weakened binding; strength is not graded here.

Amino acid sequences for entries named in this document (tags omitted). A change or cut given only in a name is not applied to a line headed by its entry. Chains listed by the source or under a name are the forms on record and can include a tag or linker. Residues count along the entry.
Human recombinant full length PTX3 (long pentraxin PTX3) (P26022, residues 18-381): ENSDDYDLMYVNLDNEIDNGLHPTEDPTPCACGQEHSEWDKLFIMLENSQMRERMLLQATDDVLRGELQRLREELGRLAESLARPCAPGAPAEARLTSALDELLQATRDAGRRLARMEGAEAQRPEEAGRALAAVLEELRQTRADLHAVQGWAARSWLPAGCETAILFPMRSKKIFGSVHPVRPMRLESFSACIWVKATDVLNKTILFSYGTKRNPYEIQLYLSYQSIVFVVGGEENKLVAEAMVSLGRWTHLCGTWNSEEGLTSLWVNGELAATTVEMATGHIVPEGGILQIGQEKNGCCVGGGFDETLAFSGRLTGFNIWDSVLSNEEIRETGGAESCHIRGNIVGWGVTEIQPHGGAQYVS
recombinant 6xHis-tagged Nterm-PTX3 (N-terminal fragment PTX3(1-178)), from E. coli (P26022, form named): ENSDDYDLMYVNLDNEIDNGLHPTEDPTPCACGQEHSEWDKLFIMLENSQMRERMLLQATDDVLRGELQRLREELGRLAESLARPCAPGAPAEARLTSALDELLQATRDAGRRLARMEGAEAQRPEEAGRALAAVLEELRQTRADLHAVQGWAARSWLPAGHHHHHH
UniProt P09038, residues 134-288: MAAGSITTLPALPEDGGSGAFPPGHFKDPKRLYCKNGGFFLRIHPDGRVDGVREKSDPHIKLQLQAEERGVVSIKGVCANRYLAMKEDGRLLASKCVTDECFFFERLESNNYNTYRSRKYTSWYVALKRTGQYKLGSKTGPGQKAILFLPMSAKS

Assays:
[1] = target: Human recombinant full length PTX3 (long pentraxin PTX3) (human) (UniProt P26022); assay: SPR (BIAcore): FGF2 0.8 µM (upper) and 0.1, 0.5, 0.8, 1.1 µM (lower) injected over immobilized PTX3
[2] = target: Human recombinant FGF2 (Fibroblast growth factor-2) (human) (UniProt P09038); assay: competition ELISA: bPTX3 (22 nM) on FGF2-coated wells with a 10 fold-molar excess of competitor
[3] = target: Human recombinant FGF2 (Fibroblast growth factor-2) (human) (UniProt P09038); assay: competition ELISA: bPTX3 (22 nM) on FGF2-coated wells with competitor at 220 nM
[4] = target: Human recombinant FGF2 (Fibroblast growth factor-2) (human) (UniProt P09038); assay: ELISA: FGF2-coated wells, protein at 44 nM, detection with rabbit polyclonal anti-PTX3 antibody
[5] = target: Human recombinant FGF2 (Fibroblast growth factor-2) (human) (UniProt P09038); assay: solid phase binding assay (ELISA), FGF2-coated wells, protein 44 nM, anti-PTX3 detection
[6] = target: Human recombinant FGF2 (Fibroblast growth factor-2) (human) (UniProt P09038); assay: solid phase binding assay, PTX3-coated wells, FGF2 80 nM, anti-FGF2 detection
[7] = target: Human recombinant FGF2 (Fibroblast growth factor-2) (human) (UniProt P09038); assay: SPR competition: FGF2 0.8 µM over immobilized PTX3 with free PTX3 in the mobile phase

Measured: binding

Human recombinant FGF2 (Fibroblast growth factor-2) (from UniProt P09038 134-288) (ligand)
binds: [1]

Human recombinant full length PTX3 (long pentraxin PTX3) (from UniProt P26022 18-381)
not listed: [1]
binds: all other assays above

recombinant 6xHis-tagged Nterm-PTX3 (N-terminal fragment PTX3(1-178)), from E. coli (from UniProt P26022 18-178)
binds: [2] | [4] | [5]
